Data as given in PubChem BioAssay AID686938 (Drosophila RNAi Screening Center, 2013).
Aim: 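Fly genes required for calcium entry once internal stores are emptied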 (primary screen). Cells: Drosophila S2R+ cells. Reagent: long dsRNA against Drosophila genes, about 0.25 µg dsRNA per well, roughly 10,000 cells. Duration: 5 days of knock-down before the calcium assay. Challenge: thapsigargin (SERCA pump blocker) to empty calcium stores; entry signal taken 4 min after adding it. Detection: 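Duplicate raw fluo-4 intensities per well from a plate reader, at rest and four minutes after thapsigargin emptied calcium stores; entry-to-rest ratio filled for only some wells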. Direction: calcium entry signal: higher = stronger calcium signal after store depletion; resting calcium signal: higher = higher resting calcium signal. Rule for the call: 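Hit if the duplicate-averaged plate z-score for entry over resting signal is under −3; wells with weak total dye signal (Fmax z < −2) or more than 5 off-targets removed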. Calls: active = strongly reduced calcium entry; inactive = no strong reduction.
In all, the deposit lists about 23,000 reagents; this is a random part of those that have a named target and a result. Of all reagents, 75 (0.33%) were called active. 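Raw plate signals without normalisation; calls rest on plate z-scores that were not deposited; ratio present for only 364 wells.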 Not given: the dose of the treatment.

With uno (univalents only) [SID104187036], how do the results read?
calcium entry signal, replicate 1 (fluorescence units): 2.97e7; calcium entry signal, replicate 2 (fluorescence units): 3.67e7; resting calcium signal, replicate 1 (fluorescence units): 1.37e7; resting calcium signal, replicate 2 (fluorescence units): 2.04e7; Outcome: inactive

With ssp3 (short spindle 3) [SID104182461], how do the results read?
calcium entry signal, replicate 1 (fluorescence units): 3.56e7; calcium entry signal, replicate 2 (fluorescence units): 3.69e7; resting calcium signal, replicate 1 (fluorescence units): 1.55e7; resting calcium signal, replicate 2 (fluorescence units): 1.64e7; Outcome: inactive

How did the screen score ssp3 (short spindle 3) [SID104182462]?
calcium entry signal, replicate 1 (fluorescence units): 6.32e7; calcium entry signal, replicate 2 (fluorescence units): 4.41e7; resting calcium signal, replicate 1 (fluorescence units): 2.94e7; resting calcium signal, replicate 2 (fluorescence units): 1.68e7; Outcome: inactive

What is on record for Tpc1 [SID104195406]?
calcium entry signal, replicate 1 (fluorescence units): 4.09e7; calcium entry signal, replicate 2 (fluorescence units): 4.22e7; resting calcium signal, replicate 1 (fluorescence units): 1.84e7; resting calcium signal, replicate 2 (fluorescence units): 2.24e7; Outcome: inactive

With Tpc1 [SID104195866], how do the results read?
calcium entry signal, replicate 1 (fluorescence units): 4.52e7; calcium entry signal, replicate 2 (fluorescence units): 3.99e7; resting calcium signal, replicate 1 (fluorescence units): 1.85e7; resting calcium signal, replicate 2 (fluorescence units): 1.78e7; Outcome: inactive

Which result is listed for CG43292 [SID104188675]?
calcium entry signal, replicate 1 (fluorescence units): 4.05e7; calcium entry signal, replicate 2 (fluorescence units): 5.67e7; resting calcium signal, replicate 1 (fluorescence units): 2.32e7; resting calcium signal, replicate 2 (fluorescence units): 2.72e7; Outcome: inactive

With CG43292 [SID104201259], what does the deposit list?
calcium entry signal, replicate 1 (fluorescence units): 4.48e7; calcium entry signal, replicate 2 (fluorescence units): 3.45e7; resting calcium signal, replicate 1 (fluorescence units): 2.59e7; resting calcium signal, replicate 2 (fluorescence units): 1.73e7; Outcome: inactive

What is on record for CG15043 [SID104199411]?
calcium entry signal, replicate 1 (fluorescence units): 3.59e7; calcium entry signal, replicate 2 (fluorescence units): 3.54e7; resting calcium signal, replicate 1 (fluorescence units): 2.04e7; resting calcium signal, replicate 2 (fluorescence units): 1.78e7; Outcome: inactive

For smo (smoothened) [SID104180629], what was measured?
calcium entry signal, replicate 1 (fluorescence units): 3.94e7; resting calcium signal, replicate 1 (fluorescence units): 2.25e7; Outcome: inactive

With CG14860 [SID104194775], what was measured?
calcium entry signal, replicate 1 (fluorescence units): 3.80e7; calcium entry signal, replicate 2 (fluorescence units): 4.58e7; resting calcium signal, replicate 1 (fluorescence units): 1.82e7; resting calcium signal, replicate 2 (fluorescence units): 6.00e7; Outcome: inactive

What did the screen give for CG11034 [SID104181913]?
calcium entry signal, replicate 1 (fluorescence units): 2.65e7; calcium entry signal, replicate 2 (fluorescence units): 2.78e7; resting calcium signal, replicate 1 (fluorescence units): 1.33e7; resting calcium signal, replicate 2 (fluorescence units): 1.32e7; Outcome: inactive

Which result is listed for CG11034 [SID104181914]?
calcium entry signal, replicate 1 (fluorescence units): 2.79e7; calcium entry signal, replicate 2 (fluorescence units): 2.41e7; resting calcium signal, replicate 1 (fluorescence units): 1.39e7; resting calcium signal, replicate 2 (fluorescence units): 1.32e7; Outcome: inactive

Which result is listed for robo3 (roundabout 3) [SID104180166]?
calcium entry signal, replicate 1 (fluorescence units): 3.70e7; calcium entry signal, replicate 2 (fluorescence units): 4.18e7; resting calcium signal, replicate 1 (fluorescence units): 1.74e7; resting calcium signal, replicate 2 (fluorescence units): 1.68e7; Outcome: inactive

For robo3 (roundabout 3) [SID104180167], what does the deposit list?
calcium entry signal, replicate 1 (fluorescence units): 3.99e7; calcium entry signal, replicate 2 (fluorescence units): 4.44e7; resting calcium signal, replicate 1 (fluorescence units): 1.78e7; resting calcium signal, replicate 2 (fluorescence units): 1.83e7; Outcome: inactive

For robo3 (roundabout 3) [SID104180476], what was measured?
calcium entry signal, replicate 1 (fluorescence units): 3.57e7; calcium entry signal, replicate 2 (fluorescence units): 4.14e7; resting calcium signal, replicate 1 (fluorescence units): 1.76e7; resting calcium signal, replicate 2 (fluorescence units): 1.80e7; Outcome: inactive

What did the screen give for ste24b (ste24b prenyl protease type I) [SID104187107]?
calcium entry signal, replicate 1 (fluorescence units): 4.09e7; calcium entry signal, replicate 2 (fluorescence units): 3.97e7; resting calcium signal, replicate 1 (fluorescence units): 1.76e7; resting calcium signal, replicate 2 (fluorescence units): 1.70e7; Outcome: inactive

With CG34109 [SID104181961], how do the results read?
calcium entry signal, replicate 1 (fluorescence units): 2.82e7; calcium entry signal, replicate 2 (fluorescence units): 3.77e7; resting calcium signal, replicate 1 (fluorescence units): 1.33e7; resting calcium signal, replicate 2 (fluorescence units): 1.66e7; Outcome: inactive

With CG34109 [SID104182016], what does the deposit list?
calcium entry signal, replicate 1 (fluorescence units): 3.01e7; calcium entry signal, replicate 2 (fluorescence units): 4.72e7; resting calcium signal, replicate 1 (fluorescence units): 1.40e7; resting calcium signal, replicate 2 (fluorescence units): 2.16e7; Outcome: inactive

For CG34109 [SID104182017], how do the results read?
calcium entry signal, replicate 1 (fluorescence units): 2.81e7; calcium entry signal, replicate 2 (fluorescence units): 3.39e7; resting calcium signal, replicate 1 (fluorescence units): 1.43e7; resting calcium signal, replicate 2 (fluorescence units): 1.69e7; Outcome: inactive

With Bcat (Branched chain amino acid transaminase) [SID104199548], how do the results read?
calcium entry signal, replicate 1 (fluorescence units): 3.91e7; calcium entry signal, replicate 2 (fluorescence units): 4.34e7; resting calcium signal, replicate 1 (fluorescence units): 1.90e7; resting calcium signal, replicate 2 (fluorescence units): 2.03e7; Outcome: inactive

What is on record for Ugt36E1 (UDP-glycosyltransferase family 36 member E1) [SID104182391]?
calcium entry signal, replicate 1 (fluorescence units): 6.30e7; resting calcium signal, replicate 1 (fluorescence units): 2.93e7; Outcome: inactive
